Source: doi:10.1101/2022.11.21.517367

The chains behind the UniProt entries cited, without tags or fusion partners. Where a name states a change or a piece, a line headed by the entry shows the natural chain unless it says otherwise.
UniProt P06136: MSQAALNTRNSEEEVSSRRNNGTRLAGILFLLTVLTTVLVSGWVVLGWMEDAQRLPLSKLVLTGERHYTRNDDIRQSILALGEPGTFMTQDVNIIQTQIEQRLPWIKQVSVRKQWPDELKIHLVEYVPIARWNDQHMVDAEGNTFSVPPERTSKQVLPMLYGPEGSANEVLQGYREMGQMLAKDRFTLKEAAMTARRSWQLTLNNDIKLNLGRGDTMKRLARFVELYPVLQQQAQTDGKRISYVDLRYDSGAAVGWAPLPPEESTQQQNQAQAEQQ

Biological target: T1, E. coli TwinStrep-FtsK 1-222 (E. coli) (UniProt P46889)
T1 sequence: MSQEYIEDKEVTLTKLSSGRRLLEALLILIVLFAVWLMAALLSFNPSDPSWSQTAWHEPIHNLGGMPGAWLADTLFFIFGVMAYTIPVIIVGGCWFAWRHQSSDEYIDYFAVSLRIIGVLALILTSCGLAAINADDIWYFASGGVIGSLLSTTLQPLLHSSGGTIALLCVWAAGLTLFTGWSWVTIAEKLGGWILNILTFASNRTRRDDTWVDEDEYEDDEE
Assay: co-purification

binding: binds
Substance: E. coli FtsQ-His6 (from UniProt P06136)

No constants are given. Whether binding was seen depends on the method and setting. Binding seen in cells or lysates may run through a third protein. A result given as binding can be weak or reduced; the word gives no strength.
